The values below come from patent US5618785A (Centocor, Inc., priority 1995, dated 1997).

HELM strings list residues between dots; [ac] is acetyl, [am] amide, other brackets name non-standard units.

This data set in a line: general procedure: Boc solid-phase peptide synthesis; 4-methyl benzhydrylamine resin. As to conditions: whole synthesis, scale 0.5 mmol.
“Acetyl-arginyl-glycyl-histidyl-leucyl-valyl-(4-bromo-phenylalanyl)-isoleucyl-glutamine-amide” came in with a crude mass of 512 mg. Take “Acetyl-arginyl-glycyl-histidyl-leucyl-valyl-phenylalanyl-isoleucyl-glutamine-amide”: the crude mass stood at 760 mg and the isolated mass is 396 mg. In the case of “Acetyl-arginyl-glycyl-histidyl-leucyl-valyl-tyrosyl-isoleucyl-glutamine-amide”, the crude mass is 592 mg. On to “Acetyl-tyrosyl-threonyl-lysyl-leucyl-valyl-histidyl-isoleucyl-glutamine-amide”, for which the crude mass amounted to 926 mg and the isolated mass is reported as 298 mg.

With “Acetyl-tyrosyl-threonyl-lysyl-leucyl-valyl-phenylalanyl-glutaminyl-glutamine-amide”, the crude mass worked out at 334 mg. As to “Acetyl-tyrosyl-threonyl-lysyl-leucyl-valyl-phenylalanyl-isoleucyl-glutamine-amide”, the crude mass is reported as 815 mg and the isolated mass is 122 mg. The substance “PEPTIDE1{Y.T.K.[homo-Phe].V.A.I.Q.[am]}$$$$V2.0” showed a crude mass of 619 mg and an isolated mass of 276 mg. In turn, “PEPTIDE1{[ac].Y.T.K.L.V.[D-homo-Phe].I.Q.[am]}$$$$V2.0” returned a crude mass of 493 mg.

For the substance “Tyrosyl-threonyl-lysyl-leucyl-valyl-phenylalanyl-isoleucyl-glutamine-amide”, the crude mass is recorded as 596 mg and the isolated mass was 375 mg. Regarding “Tyrosyl-threonyl-lysyl-phenylalanyl-valyl-alanyl-isoleucyl-glutamine-amide”, the crude mass turned out to be 448 mg and the isolated mass amounted to 309 mg.

For the substance “Tyrosyl-threonyl-lysyl-tyrosyl-valyl-alanyl-isoleucyl-glutamine-amide”, the crude mass was 642 mg and the isolated mass is 385 mg. For “Tyrosyl-threonyl-methionyl-leucyl-valyl-alanyl-phenylalanyl-glutamine-amide”, the crude mass was 714 mg and the isolated mass is on record as 83 mg. For “Tyrosyl-threonyl-methionyl-phenylalanyl-valyl-alanyl-isoleucyl-glutamine-amide”, in that order: 626 mg and 107 mg.
